Results deposited as PubChem BioAssay AID1259308 (NCATS, 2017).

Aim: 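Genes whose loss raises luciferase production in HEK293 cells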 (primary screen)
Cell system: human HEK293 embryonic kidney cells stably expressing firefly luciferase (HEK-CMV-Luc2-Hygro)
Knock-down reagent: single siRNA against human genes, 0.8 pmol siRNA per well
Time to read-out: 72 h
Measured: 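Reporter luminescence and viable-cell signal on separate replicate plates, given as percent of non-targeting control and median/MAD z-scores, plus per-cell luciferase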
Reading the numbers: total luciferase, z-score: higher = more reporter protein produced
Hit rule: 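Active when the median/MAD z-score for overall luciferase is greater than 3; a gene was taken forward for validation with new siRNAs if at least two of its three siRNAs passed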
Meaning of the calls: active = raised luciferase; inactive = no rise
The whole screen tested about 59,000 reagents; this is an unselected part. About 1,510 of all reagents (2.6%) were called active. 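Calls use total luciferase alone and ignore viability, so some active siRNAs may act by altering cell number.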 Further read-outs or replicates are left out here.

total luciferase, z-score, by target gene and reagent
B3GALT2: SID160720639 0.541 inactive; SID160720640 1.41 inactive; SID160720641 -0.475 inactive
CUL7: SID160723173 2.34 inactive; SID160723174 0.904 inactive; SID160723175 1.03 inactive
GPD2: SID160772810 -0.0393 inactive; SID160772821 1.16 inactive; SID160772831 0.938 inactive
RAB11FIP5: SID160737551 0.284 inactive; SID160737552 -0.712 inactive; SID160737553 0.375 inactive
PTGES3P3: SID160767923 0.73 inactive; SID160767924 -0.582 inactive; SID160767925 -0.57 inactive
TRIP12: SID160721933 -0.0288 inactive; SID160721934 1.75 inactive; SID160721936 1.24 inactive
CPZ: SID160720257 0.467 inactive; SID160720258 1.43 inactive; SID160720259 1.06 inactive
CYP2S1: SID160739171 -2.08 inactive; SID160739172 0.351 inactive; SID160739173 -0.982 inactive
UNC5B-AS1: SID160734443 -0.431 inactive; SID160734444 0.978 inactive; SID160772309 0.226 inactive
LEKR1: SID160766122 0.0708 inactive; SID160766123 -1.37 inactive; SID160766124 1.59 inactive
OR4A5: SID160750710 0.149 inactive; SID160750712 3.23 active; SID160750713 -0.372 inactive
MGP: SID160777225 0.963 inactive; SID160777226 -0.405 inactive; SID160777227 0.0327 inactive
CWC27: SID160728072 -0.147 inactive; SID160728073 -1.21 inactive; SID160728074 2.07 inactive
SLC25A38P1: SID160768100 0.353 inactive; SID160768101 3.25 active; SID160768102 -1.64 inactive
ADCYAP1: SID160714209 -0.639 inactive; SID160714220 1.5 inactive; SID160714231 1.22 inactive
PDE4DIP: SID160727870 -1.16 inactive; SID160727871 0.0548 inactive; SID160727872 1.93 inactive
RPS6KA6: SID160730977 -0.339 inactive; SID160738733 0.802 inactive; SID160738734 0.292 inactive
GMPPA: SID160739311 -0.132 inactive; SID160739312 -1.12 inactive; SID160739314 -0.191 inactive
UTP14A: SID160729286 -1.44 inactive; SID160729287 -0.0684 inactive; SID160729288 -2.03 inactive

Part of the list above, reformatted.
RAB11FIP5 [SID160737552]
- total luciferase, z-score: -0.712
- call: inactive

RAB11FIP5 [SID160737553]
- total luciferase, z-score: 0.375
- call: inactive

PTGES3P3 [SID160767923]
- total luciferase, z-score: 0.73
- call: inactive

PTGES3P3 [SID160767924]
- total luciferase, z-score: -0.582
- call: inactive

PTGES3P3 [SID160767925]
- total luciferase, z-score: -0.57
- call: inactive

TRIP12 [SID160721933]
- total luciferase, z-score: -0.0288
- call: inactive

TRIP12 [SID160721934]
- total luciferase, z-score: 1.75
- call: inactive

TRIP12 [SID160721936]
- total luciferase, z-score: 1.24
- call: inactive

CPZ [SID160720257]
- total luciferase, z-score: 0.467
- call: inactive
